Where two headings read alike, the source gives them in different places. These are yes or no findings as the source states them, for the method shown. In cells and extracts the contact can be indirect. These calls come from enrichment with a bait or labelling near it, and not all partners need be listed. A no says only that the protein was not detected with the bait. Tags and fused reporters may be left off the sequences shown.
T1: C. elegans TMC-2 (transmembrane channel-like protein 2), native, with C-terminal mVenus-3C-3xFLAG (C. elegans) (UniProt Q11069)
T1 sequence (chain, N-glycans at N225 and N748 (density features)): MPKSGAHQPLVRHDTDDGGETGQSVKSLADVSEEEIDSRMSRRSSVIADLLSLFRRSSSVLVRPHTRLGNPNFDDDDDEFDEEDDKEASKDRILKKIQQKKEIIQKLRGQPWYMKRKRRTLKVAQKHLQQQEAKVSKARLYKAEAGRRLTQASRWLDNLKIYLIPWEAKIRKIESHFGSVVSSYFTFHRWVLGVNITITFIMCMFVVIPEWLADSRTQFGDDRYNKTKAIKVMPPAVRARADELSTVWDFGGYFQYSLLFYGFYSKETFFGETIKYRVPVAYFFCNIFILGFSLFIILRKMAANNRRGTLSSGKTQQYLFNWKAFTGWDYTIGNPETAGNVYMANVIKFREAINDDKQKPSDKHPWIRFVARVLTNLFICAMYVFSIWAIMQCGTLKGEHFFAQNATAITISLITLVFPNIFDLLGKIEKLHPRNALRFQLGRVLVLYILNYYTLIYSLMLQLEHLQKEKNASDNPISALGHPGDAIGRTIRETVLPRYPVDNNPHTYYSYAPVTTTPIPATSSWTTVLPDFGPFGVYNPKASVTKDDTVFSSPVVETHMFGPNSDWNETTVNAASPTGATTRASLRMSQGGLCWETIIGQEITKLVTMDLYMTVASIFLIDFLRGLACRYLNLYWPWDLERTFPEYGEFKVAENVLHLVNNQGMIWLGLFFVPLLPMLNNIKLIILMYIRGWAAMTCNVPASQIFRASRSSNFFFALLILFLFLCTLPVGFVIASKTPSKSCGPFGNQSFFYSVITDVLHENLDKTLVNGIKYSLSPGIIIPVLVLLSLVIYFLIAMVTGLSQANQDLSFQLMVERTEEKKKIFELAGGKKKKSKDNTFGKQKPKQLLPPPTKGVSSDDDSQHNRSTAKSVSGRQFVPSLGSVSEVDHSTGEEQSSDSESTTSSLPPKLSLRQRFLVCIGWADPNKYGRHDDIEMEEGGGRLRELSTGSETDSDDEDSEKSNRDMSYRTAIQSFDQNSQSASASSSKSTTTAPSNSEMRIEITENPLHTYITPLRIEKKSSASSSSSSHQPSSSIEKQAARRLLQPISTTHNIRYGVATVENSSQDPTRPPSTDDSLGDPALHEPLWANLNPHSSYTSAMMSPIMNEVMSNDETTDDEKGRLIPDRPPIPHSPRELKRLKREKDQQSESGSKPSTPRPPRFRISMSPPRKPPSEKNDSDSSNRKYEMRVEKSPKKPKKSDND


How the values were obtained:
[1] = target: T1, C. elegans TMC-2 (transmembrane channel-like protein 2), native, with C-terminal mVenus-3C-3xFLAG (C. elegans); experiment: affinity purification with mass spectrometry + cryo-EM structure; native TMC-2 complex isolated from tmc2::mVenus worms by anti-FLAG affinity and SEC; proteins sought in the mass spectrometry data and in the cryo-EM map
[2] = target: T1, C. elegans TMC-2 (transmembrane channel-like protein 2), native, with C-terminal mVenus-3C-3xFLAG (C. elegans); experiment: as above; remark: listed apart in the source

| binding [1] | binding [2] | Molecule |
| --- | --- | --- |
| no binding | – | UNC-44, the worm ortholog of mammalian ankyrin (C. elegans) |
| no binding | – | arrestin (ARRD-6), C. elegans |
| no binding | – | worm ortholog of lipoma HMGIC fusion partner-like 5 (LHFPL5) (C. elegans) |
| no binding | – | worm ortholog of protocadherin-15 (PCDH15) (C. elegans) |
| – | no binding | C. elegans TMC-1 (transmembrane channel-like protein 1) (protein, UniProt D3KZG3 1-1285) MQEAARRASLRKEHTPTNEKFGDLSKQDSLGERASSKLTLDDELYDILYAFGETDAFINKGDKQRETDEDGNPLTRQALLERIRQKKEVIGKLRCQAWSMTRKRRTLKLAQKYLEQHESKVSRSHLYMEEMRKRARLMKRSFSNFKTYLIPWESKIKRIESHFGSVVSSYFTFLRWIVFVNIMITLIALVFVVLPETLADSVANEGRFNRTKTRKQIPANERVHADELAVVWHYDGYLRYSPLFYGYYSDDPFLGNKIKYALPLAYFMVTLTIFAYSFFAILRKMAANARMSKLSGSKAEQYIFNWKLFTGWDYTIGNSETASNTVMAVVIKLRESIADIKKDAHGKFRLLQFSLRVFANIIICAMLGFSIYCIIFAVQKSQVQDDGNLFTKNQVPSVVSTITHVFPMIFDLIGKMENYHPRTALRAHLGRVLILYTVNYITLIFALFEKMTALRDRVNSTSTSSSHRTKRQQGGWNPNMQRPPPYASRAEVRQMSDFLAANTRRFQTVSQRTTRSVTTPFTVAPQFGPFNVNNPNAVFHNGTHSTSFESQILGPKALPIFTPPPRKYPGFTPGNVGQQFGGPDFPRNQVYTKSTPLPRVRTKPPWVYTTTHPPLVQNRAMTTTMSKSAKKGNSKNLDDDILLSNETIQMSEAALRRNHDGHNNDICWETIIGQEIVKLVTMDLIFTILSILVIDLFRGLWIKYCSSWWCWDIETTFPEYGEFKVAENVLHIINNQGMIWLGLFFAPLLPAINNIKLIILMYIRGWAVMTCNVPAREIFRASRSSNFYLGILLIWLLLCTLPVGFVIASMSPSRSCGPFARYQHFYTVVTREIEKRVDQTVLSYIRHIASPGVVIPIILFLILIIYFLFSLVRGLREANTDLQAQLVHERTEEKKKIFELAGGKKNKFEKDRDKKRSNDYIPLIEQRRREPWRQYHEMEADHALASDSSEESDINEDEDDERQPLTAYPLRAIETPPETLQVTAFHPSLGSLIENREMEDEESASGDQLPMIHKSVSFQGPSHMQMRQSISTESCSQISRSAIQVATPEEIRALLRPYLEAKYGIPYQHGIKSFPIDVHTPPNNTPSRRSSKYNSFVSLYEHTRDDHKNFVASTIKETDEDPGKSDKKQTSSKDVAPDFMPWPSADEARALREKMKSKTPLMLTKTTVEEKPKGGKSSESEFRPPVPIHRKYNIQTTEEENEEEETDSAPESSKKRFRISVSPTKTIAPASASRAQHKIVSQASSSSSIPHGRQPDPNKKASLVLPPLRAPRVQFDEDDSPRQID |
